Values from PubChem BioAssay AID1508597 (Cure First, 2020)

- Purpose: 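Knock-downs altering ovarian cancer cell survival with or without PARP inhibitor rucaparib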 (primary screen)
- System: human ovarian carcinoma lines grown from tumours: OCI-P5x (papillary serous) and OCI-C5x (clear cell)
- Knock-down reagent: siRNA pool against human genes, 1.25 pmol siRNA per well
- Timing: 72 h or 96 h, depending on the cell culture
- Conditions: rucaparib 20 µM (about IC30) or vehicle, present until read-out
- Rucaparib or vehicle: Vehicle
- Cell line: OCI-C5x (clear cell)
- Read-out: 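Luminescent ATP-based viability assay read 72 or 96 h after transfection, depending on culture, given as normalised percent viability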
- Reading the numbers: viability, normalised: higher = more viable cells remaining
- Active means: 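Active when normalised viability falls below 80 percent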
- Meaning of the calls: active = viability under 80%; inactive = viability 80% or more
Shown is a random part of the about 2,100 reagents, in one setting of the screen. 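Calls flag viability under 80% in either arm, not effects specific to rucaparib; the reference for percent is not stated.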 Some reagents were tested in more than one well and are listed for each. The record does not give: the 100% reference.

| gene | technical replicate | viability, normalised (%) | call |
| --- | --- | --- | --- |
| SMARCC2 | 1 | 43.4 | active |
| SMARCC2 | 2 | 32.7 | active |
| SMARCC2 | 3 | 45.1 | active |
| ABCC1 | 1 | 39.9 | active |
| ABCC1 | 2 | 54 | active |
| ABCC1 | 3 | 41.4 | active |
| TLE1 | 1 | 32.7 | active |
| TLE1 | 2 | 36.9 | active |
| TLE1 | 3 | 49.4 | active |
| MSH3 | 1 | 63 | active |
| MSH3 | 2 | 62.3 | active |
| MSH3 | 3 | 73.5 | active |
| GDPD5 | 1 | 5.73 | active |
| GDPD5 | 2 | 43.4 | active |
| GDPD5 | 3 | 49.9 | active |
| SMNDC1 | 1 | 48.5 | active |
| SMNDC1 | 2 | 50.9 | active |
| SMNDC1 | 3 | 46.5 | active |
| KPNA1 | 1 | 54.4 | active |
| KPNA1 | 2 | 45.9 | active |
| KPNA1 | 3 | 39.4 | active |
| SBDS | 1 | 40.4 | active |
| SBDS | 2 | 38.7 | active |
| SBDS | 3 | 47 | active |
| NEIL1 | 1 | 53.2 | active |
| NEIL1 | 1 | 67.3 | active |
| NEIL1 | 2 | 58.6 | active |
| NEIL1 | 2 | 48.9 | active |
| NEIL1 | 3 | 67.4 | active |
| NEIL1 | 3 | 53.1 | active |
| PAK3 | 1 | 77.2 | active |
| PAK3 | 2 | 62.7 | active |
| PAK3 | 3 | 42.1 | active |
| MED26 | 1 | 24.2 | active |
| MED26 | 2 | 25.6 | active |
| MED26 | 3 | 37.7 | active |
| ASH2L | 1 | 58.7 | active |
| ASH2L | 2 | 54.1 | active |
| ASH2L | 3 | 61.4 | active |
| NANOG | 1 | 49.6 | active |
| NANOG | 2 | 38.4 | active |
| NANOG | 3 | 44.4 | active |
| ARL8B | 1 | 50.1 | active |
| ARL8B | 2 | 58.7 | active |
| ARL8B | 3 | 40.7 | active |
| MTRFR | 1 | 55.8 | active |
| MTRFR | 2 | 52.4 | active |
| MTRFR | 3 | 37.2 | active |
| CMPK1 | 1 | 69.8 | active |
| CMPK1 | 2 | 59.6 | active |
| CMPK1 | 3 | 48.9 | active |
| MLKL | 1 | 60.9 | active |
| MLKL | 2 | 78.3 | active |
| MLKL | 3 | 72.8 | active |
| PDCD2L | 1 | 53.3 | active |
| PDCD2L | 2 | 54.4 | active |
| PDCD2L | 3 | 50.2 | active |
